Laboratory results reported in PMC4330359.
For at least one entry, the source does not settle the construct or the ends of the probe. A weaker result is weaker than the reference pair of the same experiment. For part of these data: At least one verdict rests on a figure or table, not on a statement of the authors.

Sequences of proteins named here, by UniProt entry; tags and fusion partners are left off. Residues count along the entry.
UniProt P63015, 4-130 G36R: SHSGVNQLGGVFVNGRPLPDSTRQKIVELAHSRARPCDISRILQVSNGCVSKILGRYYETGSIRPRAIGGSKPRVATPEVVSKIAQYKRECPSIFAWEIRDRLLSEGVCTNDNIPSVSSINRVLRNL
UniProt P63015, 4-130 R44Q: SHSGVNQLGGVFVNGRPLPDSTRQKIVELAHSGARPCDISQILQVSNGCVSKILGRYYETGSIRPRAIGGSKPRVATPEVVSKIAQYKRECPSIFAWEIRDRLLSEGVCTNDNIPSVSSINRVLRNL

Experiments:
Test in all cases: EMSA
[1] = system: Sox2-HMG long (109 aa) + Pax2-PRD; conditions: cooperativity abolished; EMSA: 10 mM Tris-HCl pH 8.0, 0.1 mg/ml BSA, 50 uM ZnCl2, 100 mM KCl, 10% glycerol, 0.1% IGEPAL CA-630, 2 mM 2-mercaptoethanol, 1-2 h, gel at 4 C, 100-300 nM DNA; recombinant protein; label: 5'-FAM or 5'-Cy5
[2] = system: Sox2-HMG long (109 aa) + Pax3-PRD; conditions: cooperativity abolished; EMSA: 10 mM Tris-HCl pH 8.0, 0.1 mg/ml BSA, 50 uM ZnCl2, 100 mM KCl, 10% glycerol, 0.1% IGEPAL CA-630, 2 mM 2-mercaptoethanol, 1-2 h, gel at 4 C, 100-300 nM DNA; recombinant protein; label: 5'-FAM or 5'-Cy5
[3] = system: Sox2-HMG long (109 aa) + Pax8-PRD; conditions: cooperativity abolished; EMSA: 10 mM Tris-HCl pH 8.0, 0.1 mg/ml BSA, 50 uM ZnCl2, 100 mM KCl, 10% glycerol, 0.1% IGEPAL CA-630, 2 mM 2-mercaptoethanol, 1-2 h, gel at 4 C, 100-300 nM DNA; recombinant protein; label: 5'-FAM or 5'-Cy5
[4] = system: Sox2-HMG long (109 aa) + Pax9-PRD; conditions: cooperativity abolished; EMSA: 10 mM Tris-HCl pH 8.0, 0.1 mg/ml BSA, 50 uM ZnCl2, 100 mM KCl, 10% glycerol, 0.1% IGEPAL CA-630, 2 mM 2-mercaptoethanol, 1-2 h, gel at 4 C, 100-300 nM DNA; recombinant protein; label: 5'-FAM or 5'-Cy5
[5] = biological target: Pax6-PRD G36R (UniProt P63015); conditions: markedly reduced affinity; EMSA: 10 mM Tris-HCl pH 8.0, 0.1 mg/ml BSA, 50 uM ZnCl2, 100 mM KCl, 10% glycerol, 0.1% IGEPAL CA-630, 2 mM 2-mercaptoethanol, 1-2 h, gel at 4 C, 100-300 nM DNA; recombinant protein; label: 5'-FAM or 5'-Cy5
[6] = biological target: Pax6-PRD R44Q (UniProt P63015); conditions: markedly reduced affinity; EMSA: 10 mM Tris-HCl pH 8.0, 0.1 mg/ml BSA, 50 uM ZnCl2, 100 mM KCl, 10% glycerol, 0.1% IGEPAL CA-630, 2 mM 2-mercaptoethanol, 1-2 h, gel at 4 C, 100-300 nM DNA; recombinant protein; label: 5'-FAM or 5'-Cy5

Measured: binding result

AAATATTCATTGTTGATGTTCACGCATCATGGATCC (double strand) [DC5con]
binds more weakly: [1] | [2] | [3] | [4]

AAGCATTTTCACGCATGAGTGCACAG (double strand) [Pax6_xtal]
binds more weakly: [5] | [6]
